Data on one molecule can be found in paper PMC3032679, “Designed hybrid TPR peptide targeting Hsp90 as a novel anticancer agent” (Journal of Translational Medicine, 2011).

These are yes or no findings as the source states them, for the method shown.

The assay concerns the target human recombinant Hsp90α (human) (UniProt P07900). The assay can be described thus: SPR; competition; Hsp90 (1 μM) preincubated with peptide (1.4, 14, 140, 280, 700 μM, 1 mM) passed over immobilised TPR2A domain of Hop (5000 RU, CM5 chip); signal without peptide = 100% binding; 25°C, HBS-EP buffer pH 7.4; both purified.

B1: TPR scramble peptide (…) (peptide)
peptide: RKFSAAIGYNKY
As to B1, the binding result is “no binding (tested: up to millimolar concentrations (1 mM))”.
